Earlier results, collected in patent US20220016310A1, “ANTIMICROBIAL SHAPE MEMORY POLYMERS” (THE TEXAS A&M UNIVERSITY SYSTEM, priority 2016, published 2022).
Some of these results come from one statement about several compounds together.

System: Escherichia coli, Pseudomonas aeruginosa, Staphylococcus aureus, and Listeria monocytogenes
Settings: four human pathogenic bacteria

SMILES	reduced biofilm activity [%]
COc1cc(/C=C/C(=O)O)ccc1O [ferulic acid]	> 70
O=C(O)c1cc(O)c(O)c(O)c1 [gallic acid]	> 70
